The values that follow come from the supplement of paper PMC6418307.

Single values of this set are uncertain.

For this experiment, the system named is primary mouse cortical neurons. Put plainly: cell health score (luciferase spike-in reads / total reads per well) (fraction); higher = fewer cellular reads, worse cell health / toxicity. The conditions noted are these: treatment time 24 h.
Where [1] appears, read: 0.01 µM, sex of neuron culture: Female.
Where [2] appears, read: 0.01 µM, sex of neuron culture: Male.
[3] abbreviates: 0.1 µM, sex of neuron culture: Female.
Setting [4] is: 0.1 µM, sex of neuron culture: Male.
The mark [5] stands for this setting: 1 µM, sex of neuron culture: Female.
The mark [6] stands for this setting: 1 µM, sex of neuron culture: Male.
Setting [7] is: 10 µM, sex of neuron culture: Female.
Setting [8] is: 10 µM, sex of neuron culture: Male.

Regarding `NC1=N[C@H](O)[C@H]2[C@H]3O[C@]4(O)O[C@@H]([C@@H](O)[C@@]2(N1)[C@@H]4O)[C@]3(O)CO` [Tetrodotoxin (TTX)], the cell health score under setting [1] was 0.000462; the cell health score under setting [2] came to 0.000807; the cell health score under setting [3] is 0.000845; the cell health score under setting [4] amounted to 0.000911; the cell health score under setting [5] came out at 0.000895; the cell health score under setting [6] amounted to 0.000829. Further, the cell health score is 0.001 under setting [7] and 0.000684 under setting [8].
In the case of `c1ccc2[nH]c(-c3cscn3)nc2c1` [Thiabendazole], the cell health score under setting [1] was determined as 0.000687; the cell health score under setting [2] was found to be 0.00049; the cell health score under setting [3] was found to be 0.00129; the cell health score under setting [4] worked out at 0.000898; the cell health score under setting [5] worked out at 0.000647; the cell health score under setting [6] is 0.000539. Further, the cell health score under setting [7] stood at 0.0016 and the cell health score under setting [8] turned out to be 0.000568.
`N#C/N=C1\SCCN1Cc1ccc(Cl)nc1` [Thiacloprid]: the cell health score was 0.000919 under setting [1]; 0.000734 under setting [2]; 0.000574 under setting [3]; 0.00085 under setting [4]; 0.00113 under setting [5]; 0.000591 under setting [6]. In addition, the cell health score reads like this: under setting [7], 0.00136; under setting [8], 0.000608.
`CN1COCN(Cc2cnc(Cl)s2)/C1=N\[N+](=O)[O-]` [Thiamethoxam]: the cell health score runs as follows: under setting [1], 0.000599; under setting [2], 0.000838; under setting [3], 0.000574; under setting [4], 0.000926; under setting [5], 0.000766; under setting [6], 0.000867. Further, the cell health score under setting [7] turned out to be 0.00118 and the cell health score under setting [8] was found to be 0.00046.
For `COC(=O)c1c(C(F)F)nc(C(F)(F)F)c(C2=NCCS2)c1CC(C)C` [Thiazopyr], the cell health score runs as follows: under setting [1], 0.000624; under setting [2], 0.000863; under setting [3], 0.00138; under setting [4], 0.000827; under setting [5], 0.000832; under setting [6], 0.000901. Besides, the cell health score is 0.00129 under setting [7] and 0.000903 under setting [8].
Consider `O=C(Nc1ccccc1)Nc1cnns1` [Thidiazuron], for which the cell health score is 0.000741 under setting [1]; 0.000609 under setting [2]; 0.000862 under setting [3]; 0.000876 under setting [4]; 0.000899 under setting [5]; 0.000715 under setting [6]. This compound came in with a cell health score under setting [7] of 0.000873 and a cell health score under setting [8] of 0.000583.
In the case of `CCN(CC)C(=O)SCc1ccc(Cl)cc1` [Thiobencarb], the cell health score runs as follows: under setting [1], 0.000475; under setting [2], 0.000636; under setting [3], 0.000771; under setting [4], 0.000763; under setting [5], 0.000818; under setting [6], 0.000585. Further, the cell health score runs as follows: under setting [7], 0.00143; under setting [8], 0.000537.
Consider `CS/C(C)=N\OC(=O)N(C)SN(C)C(=O)O/N=C(\C)SC` [Thiodicarb], for which the cell health score was determined as 0.000503 under setting [1]; 0.00068 under setting [2]; 0.000752 under setting [3]; 0.000565 under setting [4]; 0.00125 under setting [5]; 0.00049 under setting [6]. Also, the cell health score reads like this: under setting [7], 0.000794; under setting [8], 0.00066.
`COC(=O)NC(=S)Nc1ccccc1NC(=S)NC(=O)OC` [Thiophanate-methyl] yielded a cell health score under setting [1] of 0.000389; a cell health score under setting [2] of 0.000611; a cell health score under setting [3] of 0.000891; a cell health score under setting [4] of 0.000747; a cell health score under setting [5] of 0.000949; a cell health score under setting [6] of 0.000658. Also, the cell health score runs as follows: under setting [7], 0.00111; under setting [8], 0.000486.
As for `CN(C)C(=S)SSC(=S)N(C)C` [Thiram], the cell health score came to 0.000569 under setting [1]; 0.000873 under setting [2]; 0.000926 under setting [3]; 0.000681 under setting [4]; 0.000714 under setting [5]; 0.000824 under setting [6]. The cell health score by setting is: under setting [7], 0.000831; under setting [8], 0.000479.
For `CC[C@@]1(O)C(=O)OCc2c1cc1n(c2=O)Cc2cc3c(CN(C)C)c(O)ccc3nc2-1` [Topotecan], the cell health score was 0.000471 under setting [1]; 0.000872 under setting [2]; 0.002 under setting [3]; 0.0012 under setting [4]; 0.00106 under setting [5]; 0.00106 under setting [6]. Besides, the cell health score under setting [7] was 0.000913 and the cell health score under setting [8] is 0.00725.
Regarding `CCO/N=C(\CC)C1=C(O)CC(c2c(C)cc(C)cc2C)CC1=O` (stereo unspecified) [Tralkoxydim], the cell health score under setting [1] came to 0.000544; the cell health score under setting [2] amounted to 0.0007; the cell health score under setting [3] turned out to be 0.00167; the cell health score under setting [4] is 0.000884; the cell health score under setting [5] turned out to be 0.000835; the cell health score under setting [6] came out at 0.00067. In addition, the cell health score reads like this: under setting [7], 0.0014; under setting [8], 0.000913.
Turning to `CC(C)N(C(=O)SCC(Cl)=C(Cl)Cl)C(C)C` [Tri-allate], the cell health score by setting is: under setting [1], 0.000439; under setting [2], 0.0013; under setting [3], 0.000732; under setting [4], 0.000552; under setting [5], 0.000707; under setting [6], 0.000732. Further, the cell health score by setting is: under setting [7], 0.000455; under setting [8], 0.00078.
For `CC(C)(C)C(=O)C(Oc1ccc(Cl)cc1)n1cncn1` (stereo unspecified) [Triadimefon], the cell health score turned out to be 0.000654 under setting [1]; 0.000578 under setting [2]; 0.000718 under setting [3]; 0.00103 under setting [4]; 0.000784 under setting [5]; 0.000477 under setting [6]. The compound also gave a cell health score under setting [7] of 0.000926 and a cell health score under setting [8] of 0.000494.
In the case of `CC(C)(C)C(O)C(Oc1ccc(Cl)cc1)n1cncn1` (stereo unspecified) [Triadimenol], the cell health score was found to be 0.000531 under setting [1]; 0.000853 under setting [2]; 0.000722 under setting [3]; 0.000955 under setting [4]; 0.00088 under setting [5]; 0.000816 under setting [6]. The same compound showed a cell health score under setting [7] of 0.000944 and a cell health score under setting [8] of 0.000447.
As to `CCCCSP(=O)(SCCCC)SCCCC` [Tribufos], the cell health score runs as follows: under setting [1], 0.000664; under setting [2], 0.000999; under setting [3], 0.000898; under setting [4], 0.00095; under setting [5], 0.000964; under setting [6], 0.000594. Further, the cell health score is, setting by setting: under setting [7], 0.000918; under setting [8], 0.000562.
With `COP(=O)(OC)C(O)C(Cl)(Cl)Cl` (stereo unspecified) [Trichlorfon], the cell health score came out at 0.000491 under setting [1]; 0.000697 under setting [2]; 0.000826 under setting [3]; 0.00095 under setting [4]; 0.000978 under setting [5]; 0.000773 under setting [6]. Further, the cell health score is, setting by setting: under setting [7], 0.00138; under setting [8], 0.000674.
